According to the supplement of paper PMC7052299:
This is one part of the list. Repeats are few or missing, and single values can be far off.

Test system: Danio rerio embryo (th-expressing DA/NA neurons)
Experiment: percentage of embryos with altered th expression (decrease or increase vs DMSO control) in brain region; higher = more embryos with altered dopaminergic/noradrenergic marker expression; extreme values may be limits of the assay
Conditions: treatment window: 24-72 hpf, fixed 96 hpf
Description: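 Primary screen in zebrafish embryos (AB/TL). Embryos were treated with each compound at 1, 3, 10 or 30 µM in E3/PTU with 1% DMSO from 24 to 72 hpf, washed out, and fixed at 96 hpf. th (tyrosine hydroxylase) expression was scored by whole-mount in situ hybridization per DA/NA brain region (strong decrease, decrease, normal, increase, strong increase), with 7-16 embryos per treatment and no independent replicates. The value is the percentage of scored embryos whose th expression was altered (decrease or increase) relative to DMSO controls.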

[1] = 1 µM, brain region: telencephalon
[2] = 3 µM, brain region: telencephalon
[3] = 10 µM, brain region: telencephalon
[4] = 30 µM, brain region: telencephalon

SMILES | percentage of embryos with altered th expression (1 µM, brain region: DC1) | percentage of embryos with altered th expression (1 µM, brain region: DC2) | percentage of embryos with altered th expression (1 µM, brain region: DC3) | percentage of embryos with altered th expression (1 µM, brain region: DC 4,5,6) | percentage of embryos with altered th expression (1 µM, brain region: LC) | percentage of embryos with altered th expression (1 µM, brain region: MO) | percentage of embryos with altered th expression (1 µM, brain region: Pretectum) | percentage of embryos with altered th expression [1] | percentage of embryos with altered th expression (3 µM, brain region: DC1) | percentage of embryos with altered th expression (3 µM, brain region: DC2) | percentage of embryos with altered th expression (3 µM, brain region: DC3) | percentage of embryos with altered th expression (3 µM, brain region: DC 4,5,6) | percentage of embryos with altered th expression (3 µM, brain region: LC) | percentage of embryos with altered th expression (3 µM, brain region: MO) | percentage of embryos with altered th expression (3 µM, brain region: Pretectum) | percentage of embryos with altered th expression [2] | percentage of embryos with altered th expression (10 µM, brain region: DC1) | percentage of embryos with altered th expression (10 µM, brain region: DC2) | percentage of embryos with altered th expression (10 µM, brain region: DC3) | percentage of embryos with altered th expression (10 µM, brain region: DC 4,5,6) | percentage of embryos with altered th expression (10 µM, brain region: LC) | percentage of embryos with altered th expression (10 µM, brain region: MO) | percentage of embryos with altered th expression (10 µM, brain region: Pretectum) | percentage of embryos with altered th expression [3] | percentage of embryos with altered th expression (30 µM, brain region: DC1) | percentage of embryos with altered th expression (30 µM, brain region: DC2) | percentage of embryos with altered th expression (30 µM, brain region: DC3) | percentage of embryos with altered th expression (30 µM, brain region: DC 4,5,6) | percentage of embryos with altered th expression (30 µM, brain region: LC) | percentage of embryos with altered th expression (30 µM, brain region: MO) | percentage of embryos with altered th expression (30 µM, brain region: Pretectum) | percentage of embryos with altered th expression [4]
Cc1cn(CCN2CCN(c3ccccc3-c3cc(C#N)cc(C(=O)NCCCN4CCCC4)c3)CC2)c2ccccc12 | 0% | 0% | 0% | 0% | 0% | 0% | 0% | 0% | 0% | 0% | 0% | 0% | 0% | 0% | 0% | 0% | 0% | 0% | 0% | 12.5% | 0% | 0% | 0% | 0% | 0% | 0% | 0% | 0% | 0% | 0% | 0% | 0%
COc1ccc(CCc2nc3cc(-c4c(C)noc4C)ccc3n2C[C@H](C)N2CCOCC2)cc1Cl | 0% | 0% | 0% | 0% | 0% | 0% | 0% | 0% | 0% | 0% | 0% | 0% | 0% | 0% | 0% | 0% | 0% | 0% | 0% | 0% | 0% | 0% | 15.4% | 7.69% | 0% | 0% | 0% | 0% | 0% | 0% | 0% | 0%
